Experimental findings from article PMC9829410 are described below.

Amino acid sequences for entries named in this document (tags omitted). Residues count along the entry.
UniProt P08581, residues 25-1390: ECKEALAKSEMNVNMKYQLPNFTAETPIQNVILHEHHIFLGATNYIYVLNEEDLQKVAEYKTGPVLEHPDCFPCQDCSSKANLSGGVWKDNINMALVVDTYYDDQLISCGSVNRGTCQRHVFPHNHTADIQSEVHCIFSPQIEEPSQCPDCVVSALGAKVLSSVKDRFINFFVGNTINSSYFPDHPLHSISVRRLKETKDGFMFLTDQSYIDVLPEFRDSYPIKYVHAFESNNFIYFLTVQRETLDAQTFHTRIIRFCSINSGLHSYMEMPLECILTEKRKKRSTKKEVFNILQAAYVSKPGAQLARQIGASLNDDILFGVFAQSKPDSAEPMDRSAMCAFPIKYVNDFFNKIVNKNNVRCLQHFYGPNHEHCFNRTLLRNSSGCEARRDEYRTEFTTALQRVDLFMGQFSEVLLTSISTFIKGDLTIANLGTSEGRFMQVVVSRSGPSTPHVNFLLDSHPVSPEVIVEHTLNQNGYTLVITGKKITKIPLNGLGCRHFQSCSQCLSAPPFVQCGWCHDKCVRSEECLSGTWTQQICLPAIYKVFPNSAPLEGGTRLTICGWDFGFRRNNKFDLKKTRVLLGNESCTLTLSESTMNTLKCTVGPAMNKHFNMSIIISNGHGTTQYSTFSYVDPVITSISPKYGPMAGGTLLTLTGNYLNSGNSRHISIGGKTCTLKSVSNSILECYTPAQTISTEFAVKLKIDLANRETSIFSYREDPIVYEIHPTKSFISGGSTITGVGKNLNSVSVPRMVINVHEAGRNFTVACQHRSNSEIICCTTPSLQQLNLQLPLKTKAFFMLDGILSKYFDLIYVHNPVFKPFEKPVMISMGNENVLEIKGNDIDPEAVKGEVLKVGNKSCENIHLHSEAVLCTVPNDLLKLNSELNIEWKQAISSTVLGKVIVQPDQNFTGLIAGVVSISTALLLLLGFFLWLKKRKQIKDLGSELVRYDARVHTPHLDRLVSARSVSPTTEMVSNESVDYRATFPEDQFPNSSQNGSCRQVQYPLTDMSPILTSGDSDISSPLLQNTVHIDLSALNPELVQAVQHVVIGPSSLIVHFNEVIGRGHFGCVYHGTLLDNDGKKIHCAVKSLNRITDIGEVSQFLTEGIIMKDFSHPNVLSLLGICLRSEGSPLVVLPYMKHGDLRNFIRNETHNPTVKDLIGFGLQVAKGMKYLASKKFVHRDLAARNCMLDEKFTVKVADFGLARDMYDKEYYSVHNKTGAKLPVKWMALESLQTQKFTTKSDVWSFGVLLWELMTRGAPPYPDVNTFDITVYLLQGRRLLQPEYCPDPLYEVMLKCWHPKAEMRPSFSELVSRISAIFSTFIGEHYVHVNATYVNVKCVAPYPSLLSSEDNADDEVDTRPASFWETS
UniProt P16070, residues 21-742: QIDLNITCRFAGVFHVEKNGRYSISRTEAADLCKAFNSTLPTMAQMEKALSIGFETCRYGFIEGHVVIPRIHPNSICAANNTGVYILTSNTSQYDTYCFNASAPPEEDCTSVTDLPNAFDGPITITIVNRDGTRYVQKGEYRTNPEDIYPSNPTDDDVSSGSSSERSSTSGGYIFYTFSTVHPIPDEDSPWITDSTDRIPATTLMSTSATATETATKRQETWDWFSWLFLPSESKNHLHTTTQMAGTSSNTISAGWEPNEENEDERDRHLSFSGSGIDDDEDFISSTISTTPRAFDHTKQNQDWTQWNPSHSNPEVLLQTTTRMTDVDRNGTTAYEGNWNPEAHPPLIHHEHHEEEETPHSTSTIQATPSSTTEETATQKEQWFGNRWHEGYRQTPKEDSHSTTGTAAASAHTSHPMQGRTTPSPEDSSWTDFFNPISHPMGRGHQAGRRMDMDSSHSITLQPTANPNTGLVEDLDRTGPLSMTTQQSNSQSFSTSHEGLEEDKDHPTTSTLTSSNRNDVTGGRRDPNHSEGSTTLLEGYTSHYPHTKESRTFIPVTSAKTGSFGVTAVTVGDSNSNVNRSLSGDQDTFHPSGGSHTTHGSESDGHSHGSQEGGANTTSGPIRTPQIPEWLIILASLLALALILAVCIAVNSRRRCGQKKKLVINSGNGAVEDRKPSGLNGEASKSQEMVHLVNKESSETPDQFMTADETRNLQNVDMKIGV

The target of test [1] is cMET (human (endogenous in JJ012)) (UniProt P08581). Briefly: condition: only in cells that ectopically express SULF1; co-IP; IP with cMET antibody (IgG as control) from lysates of JJ012 cells stably expressing ectopic SULF1, NETN buffer, overnight at 4°C, protein A/G, western blot. In general terms: Immunoblotting shows a protein as a band on a membrane.
The target is the same in test [2]. Briefly: co-IP; IP with cMET antibody (IgG as control) from lysates of JJ012 vector control cells in NETN buffer (150 mM NaCl, 1 mM EDTA, 20 mM Tris-HCl, 0.5% NP40), overnight at 4°C, protein A/G, western blot.

These are yes or no findings as the source states them, for the method shown. In cells and extracts the contact can be indirect. Some binding calls cover weakened binding; strength is not graded here.

For the substance “CD44 (from UniProt P16070 21-742) (receptor)”, the values for the binding entry in test [1] and in test [2] were “no binding” and “binds”, respectively.
